# Measurements published in publication PMC2909763 (Chemistry & biology, 2009).
# Tested on: acetylated histone H3 in FRDA lymphoblast cell line
# Experiment: Histone H3 acetylation by western blot in FRDA lymphoblasts
# Format: cell-based, human
# Conditions: increasing concentrations, western blotting
structure (smiles),measurement,value
Cc1ccc(NC(=O)CCCCCC(=O)Nc2ccccc2N)cc1 [compound 106],HDAC inhibition in FRDA cells (histone acetylation titration),comparably active
